PubChem BioAssay AID540276 (National Center for Advancing Translational Sciences (NCATS), 2011)
The campaign covered roughly 300,000 compounds. About 5,400 (1.8%) were called active. The inconclusive results got no clear call from the source; some entries with a clear call stand among them for comparison. Calls come from the whole dose curve; tested in HEK293 cells. Potencies beside an inconclusive call are fits to weak or partial responses and may not hold up.
% is set by controls: 0 for no effect and ±100 for the full control effect; potency is the fitted concentration of half-maximal effect.

Assay: qHTS for inhibitors of binding or entry into cells for Marburg Virus
Conditions: Marburg virus pseudotyped entry inhibition, cell reporter; activity change, negative = inhibition: at 37.8 µM (top of the series) unless noted
With `CCOc1ccc(N2CC(C(=O)Nc3cc(S(=O)(=O)N4CCCCC4)ccc3C)CC2=O)cc1` (stereo not drawn) the Potency was inconclusive: 35.5 µM [inhibitor, single point].
For `c1ccc(C2Oc3ccccc3C3CC(c4cccs4)=NN32)cc1` (stereo not drawn), the Potency was inconclusive: 0.316 µM [inhibitor, full curve, poor fit].
With `COc1ccc(N2CCN([C@H]3CC(=O)NC3=O)CC2)cc1` the Potency was “inactive”.
In the case of `Cc1ccc(S(=O)(=O)CCSc2cccc(C(=O)Nc3ccccc3C(=O)O)c2)cc1`, the Potency is reported as inconclusive: 35.5 µM [inhibitor, single point].
With `COc1cc(/C=C2/C(=N)N3N=C(C(C)C)SC3=NC2=O)ccc1OS(=O)(=O)c1ccccc1` the Potency was inconclusive: 7.94 µM [activator, partial curve, poor fit].
In the case of `CC(=O)C1=C(O)C(=O)N(CCC(=O)O)C1c1ccccc1[N+](=O)[O-]` (stereo not drawn), the Potency is reported as “inactive”.
With `CN(C)CC/C=C1\c2cc(F)ccc2CSc2ccccc21` the Potency was inconclusive: 4.61 µM [inhibitor, full curve, poor fit].
In the case of `CS(=O)(=O)N(CC(=O)NCCSC1CCCCC1)c1ccc2c(c1)OCO2`, the Potency is reported as inconclusive: 0.112 µM [activator, full curve, poor fit].
For `O=C(O)c1ccc(CSc2nnc(-c3ccco3)n2-c2ccccc2)cc1`, the Potency was inconclusive: 2.82 µM [inhibitor, full curve].
For `CCCCCCCN(C(=O)CCl)c1cccc(C)c1`, the Potency was “inactive”.
With `Cc1ccc(NC(=O)N2CCC(C(=O)c3ccc(F)cc3)CC2)cc1` the Potency was “inactive”.
For `Cc1[nH]c2ccccc2c1/C=N/O`, the Potency was inconclusive: 8.2 µM [activator, partial curve, poor fit].
For `N#Cc1ccc(CN2CCN(C(=O)CNC(=O)Cc3ccccc3)CC2)cc1`, the Potency was “inactive”.
With `CCCNC(=O)CN1C(=O)CSc2ccc(S(=O)(=O)N3CCC(C)CC3)cc21` the Potency was “inactive”.
In the case of `CCOCCCNS(=O)(=O)c1cc2[nH]c3c(c2cc1C)C(=O)CC(C)(C)C3`, the Potency is reported as inconclusive: 6.31 µM [inhibitor, partial curve, poor fit].
In the case of `COc1ccccc1C(=O)OCC(=O)NC1CCCC1`, the Potency is reported as inconclusive: 0.562 µM [activator, full curve, poor fit].
In the case of `COc1cccc(/C=N/NC(=O)c2nc(-c3ccccc3)cc(-c3ccccc3)n2)c1`, the Potency is reported as inconclusive: 25.1 µM [inhibitor, single point].
In the case of `CC(C)[C@H](NC(=O)c1ccccc1)C(=O)OCC(=O)NCc1ccc2c(c1)OCO2`, the Potency is reported as inconclusive: 1 µM [inhibitor, single point].
With `CCOC(=O)C1CCN(C(=O)C(=O)N2CCC(C(=O)OCC)CC2)CC1` the Potency was “inactive”.
In the case of `CCOC(=O)c1sc2nc(CC(=O)OC)nc(NCCN(CC)CC)c2c1C`, the Potency is reported as inconclusive: 20 µM [inhibitor, single point].
For `CCc1ccc(-n2c(=O)c3c4c(sc3n(CC(=O)c3ccc(Br)cc3)c2=O)CCC4)cc1`, the Potency was inconclusive: 3.16 µM [inhibitor, partial curve, poor fit].
With `C=CCN(c1ccccc1)S(=O)(=O)c1cccc(C(=O)NCC(c2cccs2)N2CCOCC2)c1` (stereo not drawn) the Potency was inconclusive: 22.4 µM [inhibitor, single point].
In the case of `O=C(COC(=O)Cc1c[nH]c2ccccc12)NC1CCCCC1`, the activity change, negative = inhibition is reported as inconclusive: 28.4% [activator] [at 46.1 µM].
In the case of `COc1ccc(CNc2ncnc3cc(Cl)ccc23)cc1OC`, the Potency is reported as inconclusive: 10 µM [inhibitor, partial curve, poor fit].
For `c1ccc(-c2nc(-c3ccncc3)no2)cc1`, the Potency was “inactive”.
In the case of `O=C(CCSc1ccccc1)Nc1nc2c(s1)CCCC2`, the Potency is reported as inconclusive: 32.6 µM [inhibitor, single point].
For `Cc1cc(-c2ccc([N+](=O)[O-])cc2)nc2ccccc12`, the Potency was “inactive”.
With `Cc1nc(/N=C(\N)NC(=O)NC2CCCCC2)nc2ccccc12` the Potency was active: 7.94 µM.
With `O=C(c1cccc(C(F)(F)F)c1)C1CCCN(C(=O)CN2CCOC2=O)C1` (stereo not drawn) the Potency was “inactive”.
For `O=C(COc1ccc([N+](=O)[O-])cc1)N/N=C/c1ccccn1`, the Potency was “inactive”.
In the case of `CCOC(=O)CNC(=S)N(Cc1ccc(C)cc1)Cc1ccc(C)o1`, the Potency is reported as inconclusive: 14.1 µM [inhibitor, partial curve, poor fit].
For `CC1CN=C(Nc2ccc(F)c(Cl)c2)S1` (stereo not drawn), the Potency was “inactive”.
With `Cc1ccc(NS(=O)(=O)c2ccc(C(=O)N3CC(C)OC(C)C3)cc2)cc1` (stereo not drawn) the Potency was “inactive”.
For `CCCCOc1ncnc2c1[nH]c1ccc(C)cc12`, the Potency was inconclusive: 7.94 µM [inhibitor, partial curve, poor fit].
With `COc1ccc(/C=C\c2onc(C)c2S(=O)(=O)N2CCC(C(=O)Nc3cccc(OC)c3)CC2)cc1` the Potency was inconclusive: 35.5 µM [inhibitor, single point].
For `CCCCCCNc1c(C(=O)OCC)c(=O)[nH]c2ccccc12`, the Potency was inconclusive: 0.562 µM [inhibitor, full curve, poor fit].
For `O=C(OCc1ccc(Cl)c(Cl)c1)c1ccc[nH]1`, the Potency was “inactive”.
In the case of `Cc1ccc(NC(=S)NC(NC(=O)c2ccccc2C)C(Cl)(Cl)Cl)c(C)c1` (stereo not drawn), the Potency is reported as active: 23.1 µM.
For `CSC1=NCCN1C(=O)Cc1ccc(-c2ccccc2)cc1`, the Potency was inconclusive: 35.5 µM [inhibitor, single point].
With `C=C(C(C)=O)C(O)c1ccc2ccccc2c1` (stereo not drawn) the Potency was inconclusive: 0.75 µM [activator, full curve, poor fit].
In the case of `CCCCCC(=O)NC(CC(=O)OC)c1ccc2c(c1)OCO2` (stereo not drawn), the Potency is reported as inconclusive: 7.94 µM [inhibitor, partial curve, poor fit].
For `O=C(c1ccc(-c2ccccc2Cl)o1)N1CCC1`, the Potency was “inactive”.
In the case of `COc1ccc(NC(=O)CSc2nc(N)c(C(=O)Nc3ccc(N(C)C)cc3)s2)cc1`, the Potency is reported as inconclusive: 3.55 µM [inhibitor, single point].
With `Cc1ccc(C)c(S(=O)(=O)N2CCN(C(=O)C3CCN(C(=O)c4ccc(F)cc4)CC3)CC2)c1` the Potency was “inactive”.
With `O=C(C1CCN(S(=O)(=O)c2ccc(Br)s2)CC1)N1CCN(c2cccc(C(F)(F)F)c2)CC1` the Potency was inconclusive: 35.5 µM [inhibitor, single point].
For `O=C(Nc1cccc(O)c1)c1ccc(S(=O)(=O)N2CCCCCC2)cc1`, the Potency was inconclusive: 31.6 µM [activator, single point].
In the case of `NC(=O)C1C2C=CC(C2)C1c1ccccc1` (stereo not drawn), the Potency is reported as inconclusive: 2.82 µM [inhibitor, partial curve, poor fit].
With `Cc1csc(CNC(=O)CC2C(=O)NCCN2Cc2ccc(F)cc2Cl)n1` (stereo not drawn) the Potency was inconclusive: 1.26 µM [activator, single point].
With `COC1=C(Nc2ccc(OC)cc2)C(=O)c2ccccc2C1=O` the Potency was “inactive”.
With `CN(CC(=O)Nc1ccc(N2CCOCC2)cc1)C(=O)CCNC(=O)c1ccccc1Cl` the Potency was “inactive”.
With `CCCC(=O)Nc1nnc(SCC(=O)N2C(C)CCCC2C)s1` (stereo not drawn) the Potency was inconclusive: 35.5 µM [inhibitor, single point].
With `Cc1cccc(C)c1NC(=O)CC1SC2=NCCN2C1=O` (stereo not drawn) the Potency was “inactive”.
With `CCCCn1c(N)c(N(CC)C(=O)COc2ccc(C#N)cc2)c(=O)[nH]c1=O` the Potency was “inactive”.
In the case of `CCc1ccc(NC(=O)CSC2=C(C#N)C(c3ccco3)C3=C(CCCC3=O)N2)cc1` (stereo not drawn), the Potency is reported as “inactive”.
For `O=C(/C=C/c1ccccc1)c1ccccc1O`, the Potency was “inactive”.
In the case of `COc1cccc(NC(=S)N2CCN(Cc3ccccc3)CC2)c1`, the Potency is reported as inconclusive: 0.562 µM [activator, partial curve, poor fit].
In the case of `O=C(N/N=C/c1ccc(Br)o1)c1cccnc1`, the Potency is reported as “inactive”.
For `O=C(Nc1ccccc1Cl)c1ccc([N+](=O)[O-])o1`, the Potency was active: 12.6 µM.
For `Cc1cc(OCc2nc(-c3cccs3)no2)cc(C)c1Cl`, the Potency was “inactive”.
With `O=C(Nc1ccccc1)Nc1nccs1` the Potency was “inactive”.
For `N#Cc1cccc(NC(=S)Nc2ccccc2)c1`, the Potency was inconclusive: 1.41 µM [inhibitor, partial curve, poor fit].
With `O=S(=O)(c1cccs1)n1cccn1` the Potency was inconclusive: 6.31 µM [inhibitor, single point].
For `CCOc1ccccc1C(=O)N(Cc1sccc1C)C1CCS(=O)(=O)C1` (stereo not drawn), the Potency was inconclusive: 3.98 µM [inhibitor, single point].
With `CCCn1c(NCc2cccc(OC)c2OC)nc2ccccc21` the Potency was inconclusive: 29.1 µM [inhibitor, single point].
For `CC(=O)c1cccc(NC(=O)CCCN(C)S(=O)(=O)c2ccc(F)cc2)c1`, the Potency was “inactive”.
With `O=C(CN1CCCCCC1)N/N=C/c1ccc(Cl)c(Cl)c1` the Potency was “inactive”.
With `CCc1nnc(NC(=O)c2ccc3c(c2)C(=O)N(C(C)(C)C)C3=O)s1` the Potency was inconclusive: 0.651 µM [activator, partial curve, poor fit].
For `COc1cccc(NC(=O)C(OC(=O)c2ccccc2NS(=O)(=O)c2cccs2)c2ccccc2)c1` (stereo not drawn), the Potency was inconclusive: 2.24 µM [inhibitor, full curve].
In the case of `c1ccc(-c2nc(NCCCn3ccnc3)c3oc4ccccc4c3n2)cc1`, the Potency is reported as inconclusive: 29.1 µM [inhibitor, partial curve, poor fit].
For `CCSc1nnc2nc(C)cc(C)n12`, the Potency was “inactive”.
With `Cc1ccc(/C=N/NC(=O)c2cccnc2)o1` the Potency was inconclusive: 7.08 µM [inhibitor, partial curve, poor fit].
In the case of `O=C1c2cccc(OCC(=O)N3CCCc4ccccc43)c2CCN1Cc1cccnc1`, the Potency is reported as inconclusive: 17.8 µM [inhibitor, single point].
In the case of `COc1cccc(-n2c(SCC(=O)Nc3cc(C)on3)nc3ccccc3c2=O)c1`, the Potency is reported as inconclusive: 13 µM [inhibitor, partial curve, poor fit].
